In patent US20220008547A1, “Carrier Peptide Fragment and use Thereof” (TOAGOSEI CO., LTD, priority 2020, published 2022):
Some of these results come from one statement about several compounds together.

System: HeLa cells
Assay: Evaluation of cell-penetrating function by flow cytometry (mean fluorescent intensity)
Type: cell-based, human
Details: 10 μM, 20-hour incubation
Description: HeLa cells (established cell lines derived from human cervical cancer cells) were used as eukaryotic cells, and cell-penetrating functions of three samples (constructs for introducing a foreign substance) obtained in Example 1 were examined
In this example, Examples 1 to 3 were set according to the kind of peptide used as shown below. In addition, as Examples 4 and 5, peptide-free groups were set. The following test was performed in a total of 5 categories. Here, the concentration described below was a final concentration during the following 20-hour incubation.
Here, in all of the examples, the concentration of DMSO was adjusted to 0.5% during the following 20-hour incubation. […]
Then, the collected cells were analyzed using a flow cytometer. […]
Using the above flow cytometer, gating was performed based on forward scatter (FSC) and side scatter (SSC), and a gate was set for a measurement target cell population. Then, the fluorescent intensity of the cell population within such a gate was measured. The fluorescent intensity of 10,000 measurement target cells was measured for each measurement sample. […] The measurement results were analyzed using commercially available analysis software “FlowJo (registered trademark)” (commercially available from TreeStar), and a mean fluorescent intensity (MFI) of measurement target cell populations was obtained. […]

## FAM-TLKERCLQVVRSLVKKKRTLRKNDRKKR-CONH2 (N-terminal FAM; C-terminal amide) [Example 1]
  introduction of a fluorescent dye (FAM) into cells compared with FAM alone (Example 4): improved
